# In a compilation of properties of binary mixtures (doi:10.1016/j.molliq.2017.08.056):
# Where “and” joins values, the source holds several entries; their conditions need not be identical. Equal values may be shown once. The densities may have been worked out from excess volumes.
# Test: xn = mol fraction of the nth substance listed
# Conditions: 101 kPa, x1 = 0.0001
structure (smiles),measurement,setting,value
CCCC[n+]1ccn(C)c1.[Br-] + O,mass density,288.15 K,999.2 kg/m3 and 999.4 kg/m3
same,mass density,298.15 K,997.2 kg/m3
same,mass density,308.15 K,994.2 kg/m3
